Measured values reported in paper doi:10.1101/518597.
Results are given in words; binding and its absence hold for the method and conditions named. Binding seen in cells or lysates may run through a third protein. Some results given as binding are weak or reduced against the parent protein; the word gives no strength.

Target: T1, endogenous SYNPO (synaptopodin) of mature rat cortical neurons (rat (endogenous in primary cortical neurons)) (UniProt Q9Z327)
T1 sequence: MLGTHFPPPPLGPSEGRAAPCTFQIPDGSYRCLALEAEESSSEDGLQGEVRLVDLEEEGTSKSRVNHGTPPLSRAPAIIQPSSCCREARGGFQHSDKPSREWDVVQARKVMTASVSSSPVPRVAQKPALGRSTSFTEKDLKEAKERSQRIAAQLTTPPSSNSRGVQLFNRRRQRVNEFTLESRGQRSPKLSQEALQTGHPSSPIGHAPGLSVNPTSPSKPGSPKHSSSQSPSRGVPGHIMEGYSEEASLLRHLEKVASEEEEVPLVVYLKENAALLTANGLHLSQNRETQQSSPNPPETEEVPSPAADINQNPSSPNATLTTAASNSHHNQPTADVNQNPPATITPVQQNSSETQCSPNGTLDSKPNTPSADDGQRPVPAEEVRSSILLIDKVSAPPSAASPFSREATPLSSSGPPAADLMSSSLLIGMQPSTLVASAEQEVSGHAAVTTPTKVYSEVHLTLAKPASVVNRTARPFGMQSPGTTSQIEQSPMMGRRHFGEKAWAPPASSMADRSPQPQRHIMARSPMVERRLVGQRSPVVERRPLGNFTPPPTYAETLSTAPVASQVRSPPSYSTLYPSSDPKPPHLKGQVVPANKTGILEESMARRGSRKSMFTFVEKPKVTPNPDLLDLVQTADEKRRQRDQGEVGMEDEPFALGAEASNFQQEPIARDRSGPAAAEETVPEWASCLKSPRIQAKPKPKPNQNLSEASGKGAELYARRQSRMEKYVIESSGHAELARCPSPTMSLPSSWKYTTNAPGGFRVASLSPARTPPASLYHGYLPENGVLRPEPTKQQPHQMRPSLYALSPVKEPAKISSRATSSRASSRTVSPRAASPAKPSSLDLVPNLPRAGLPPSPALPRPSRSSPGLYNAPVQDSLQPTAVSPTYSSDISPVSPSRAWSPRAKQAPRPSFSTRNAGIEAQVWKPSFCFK
Assay: co-IP

binding: binds
Substance: endogenous SQSTM1/p62 (sequestosome 1) of mature rat cortical neurons (from UniProt O08623 1-439)
